This is one part of the list. These are further read-outs of the screen, such as a control signal, another cell line or another target. No call is given for them. Most of these compounds were active or inconclusive in the main read-out, so they are no random draw. Potencies come from curve fits of mixed quality, noted in brackets.
Assay: qHTS Assay for Identifying the Cell-Membrane Permeable IMPase Inhibitors
Details: CHO-M1 cells, IP1 accumulation, HTRF TR-FRET ratio; measured here: donor channel 620 nm AC50
Description: NCGC IMPase Assay Overview
Lithium has been widely used for the treatment of bipolar disorder. But lithium has a narrow therapeutic index and it can cause side effects such as thirst, weight gain, tremor, polyuria and memory problems. Although the mechanism for lithium action in treatment of bipolar disorder is still not fully understood, inhibition of inositol monophosphatase (IMPase) and the subsequent depletion of the inositol pool in living cells have been implicated as the primary therapeutic benefit of lithium therapy. Therefore, a selective IMPase inhibitor with reduced side effects might be a good drug candidate to replace lithium for the treatment of bipolar disorder. Several IMPase inhibitors have been discovered previously. However, they are not suitable for therapeutic use because of their poor cell membrane penetrability or oral bioavailability; the development of new cell-permeable IMPase inhibitors is needed.
IMPase catalyzes the hydrolysis of inositol-1-phosphate (IP1) to release free inositol. Binding of an agonist to a Gq coupled GPCR results in the activation of PLC, which hydrolyzes the PIP2 to form inositol-1,4,5-trisphosphate (IP3) and diacyl glycerol (DAG). While DAG activates protein kinase C (PKC), IP3 triggers the elevation of intracellular free Ca2+. The IP3 is very rapidly inactivated by hydrolysis to IP2, IP1 and then inositol by a series of enzymes including IMPase. Free inositols are used for synthesis of PI and thus start another inositol cycle.
To identify new cell-permeable IMPase inhibitors, we developed a cell-based IMPase assay in which the cytosolic IP1 is measured by a time-resolved fluorescence resonance energy transfer (TR-FRET) assay. In this assay, an IP1 specific antibody is used to detect the labeled IP1 tracer. When the cell lysate contains the elevated IP1 due to the inhibition of IMPase, the TR-FRET between the labeled antibody and IP1 tracer is disrupted resulting in a reduction in the total signal. Since the TR-FRET is used, this cell-based assay is a homogenous assay without cell wash and medium change that is suitable for assay miniaturization and HTS.
NCGC IMPase Assay Protocol Summary
A Chinese hamster ovary (CHO) cell line stably expressing the M1 receptor (CHO-M1) was obtained from ATCC and maintained in F-12 Kaighn's media (Invitrogen, Carlsbad, CA, 21127) supplemented with 10 % FBS, 100 units/ml penicillin, 100 ug/ml streptomycin and 250 ug/ml geneticin at 37C, 5% CO2 in a humidified atmosphere. Before the assay, aliquots of cells were frozen and stored at -135C. The assay was performed in 1536-well format. Data are reported for both the ratio of the two emission wavelengths, and also for the component 'donor' channel, Em2=620. […] AC50 values were determined from concentration-response data modeled with the standard Hill equation.
IMPase 1536-well assay protocol:
(1) Plate 4 ul/well (2000 cells) of cell suspension from frozen CHO-M1 Cells in white, tissue culture treated 1536-well plates that are cultured at 37C, 5 % CO2 for 16 to 30 hours.
(2) Add 23 nl/well of compound in DMSO solution. The final titration for each compound was between 0.6 nM and 46 uM.
(3) Add 1 ul of carbachol (50 uM in stimulation buffer containing10mM HEPES, 1mM CaCl2, 0.5 mM MgCl2, 4.2 mM KCl, 146 mM NaCl, 5.5 mM glucose, 50mM LiCl, pH 7.4.
(4) Incubation at 37C, 5 % CO2 for 30 min.
(5) Add 1 ul/well of d2-conjugated IP1 (d2-IP1) and 1 ul/well of Eu+ cryptate conjugated anti-IP1 antibody (Eu+-Ab) prepared in the cell lysis buffer, both from the IP-One kit (Cisbio, MA).
(6) Incubate at room temperature for 10 minutes.
(7) Detect the assay plate (Ex = 320, Em1 =665 and Em2 620) in a ViewLux plate reader.
inositol monophosphatase, IMPase, IMPase inhibitor, lithium, bipolar disorder, IP-One, HTRF, qHTS, NIH roadmap, NCGC
Note: In the gene ID and protein GI references for this assay, rat IMPase is referenced instead of hampster as hamster accession numbers were not available.

Row | SMILES | AC50
1 | COc1ccc(CN(C)CCc2ccccn2)c(OC)c1OC | 0.398 µM [rising, partial curve, poor fit]
2 | CC(Cc1ccccc1)N/C=C1/CC(=O)NC1=O (configuration not stated) | 31.6 µM [falling, single point]
3 | O=C(CSc1nc(-c2ccccc2)nc2c1CCCC2)c1ccc(Cl)cc1 | 0.224 µM [falling, full curve, poor fit]
4 | Cc1cccc(NC(=O)CSc2nnc(-c3ccccc3)n2N)c1C | 0.0631 µM [rising, full curve, poor fit]
5 | CC(C)(C)c1cn(-c2ccc(F)cc2)c(=S)[nH]1 | 6.31 µM [falling, full curve]
6 | COC(=O)c1ccc(Cn2nnc3sc4c(c3c2=O)CCCC4)cc1 | 35.5 µM [falling, single point]
7 | COCCn1c(SCC(=O)NCc2ccco2)nc2cccnc21 | 5.62 µM [rising, single point]
8 | CC1=NN(C(=O)Cc2ccc(C)cc2)C(O)(c2cccnc2)C1 (configuration not stated) | 3.98 µM [falling, partial curve]
9 | COc1ccccc1-n1c(C)nnc1SCC(=O)Nc1cc(C)cc(C)c1 | 3.98 µM [falling, single point]
10 | COc1ccc(C(=O)/C=C/Nc2ccc(C)cn2)cc1OC | 0.1 µM [falling, full curve, poor fit]
11 | CC(Cl)C(=O)c1c(N)n(C)c(=O)n(C)c1=O (configuration not stated) | 0.126 µM [falling, full curve, poor fit]
12 | O=C(CN1CCOc2ccccc21)NCc1cccs1 | 0.00501 µM [rising, full curve, poor fit]
13 | O=C(CSCc1ccc(F)cc1)Nc1nc2c(s1)CCCC2 | 12.6 µM [falling, single point]
14 | CC1=Nc2cc(C(=O)NC(C)C)ccc2Sc2ccc(C)cc21 | 0.0631 µM [falling, partial curve]
15 | Cc1ccc(-n2c(SCC(N)=O)nc3c(c2=O)C2(CCCC2)Cc2ccccc2-3)cc1 | 35.5 µM [rising, single point]
16 | Cc1cc2c(cc1C)NC(=O)CC(C(F)(F)C(F)(F)C(F)(F)F)=N2 | 2 µM [falling, partial curve, poor fit]
17 | CCN(CC)CCCn1c(=S)[nH]c2cc(C(=O)OC)ccc2c1=O | 0.00501 µM [falling, full curve, poor fit]
18 | COC(C(=O)Nc1ccc(F)cc1)c1ccccc1 (configuration not stated) | 31.6 µM [falling, single point]
19 | COCCn1c(=O)[nH]c2cc(C(=O)NCCc3ccc(OC)c(OC)c3)ccc2c1=O | 0.0126 µM [rising, full curve, poor fit]
20 | O=c1oc2ccccc2cc1-c1cn2cc(Cc3ccccc3F)sc2n1 | 2.24 µM [falling, partial curve]
21 | CN(C(=O)c1cccnc1)c1nnc(-c2cccnc2)s1 | 2.51 µM [falling, full curve]
22 | COc1ccc(C2Nc3ccccc3C(=O)N2c2ccccc2)cc1COc1ccccn1 (configuration not stated) | 10 µM [falling, partial curve]
23 | COc1ccc(-c2c(C#N)c(N)nc3sc(C(=O)c4ccccc4)c(N)c23)cc1 | 0.00447 µM [falling, full curve, poor fit]

Row | SMILES | AC50
24 | COCCn1c(N)c(C(=O)NCc2cccs2)c2nc3ccccc3nc21 | 0.01 µM [rising, full curve, poor fit]
25 | O=C(CSc1ncnc2c1oc1ccccc12)Nc1ccccc1C(F)(F)F | 31.6 µM [rising, partial curve]
26 | Cc1cc(NCCCN2CCOCC2)n2nc(C)c(-c3ccc(F)cc3)c2n1 | 0.0398 µM [falling, full curve]
27 | COc1cccc(CNC(=O)Cn2cc3c(n2)CCCC3)c1 | 0.00447 µM [falling, full curve, poor fit]
28 | CN(C)S(=O)(=O)c1ccc(NC(=O)/C=C/c2ccccc2Cl)cc1 | 5.62 µM [rising, single point]
29 | CCC(C)C(=O)Nc1ncc2c(n1)CC(c1cccs1)CC2=O (configuration not stated) | 25.1 µM [falling, single point]
30 | CCCOc1ccc(Cn2c(=O)sc3ccccc32)cc1 | 0.708 µM [falling, full curve]
31 | O=C(O)Cn1c(SCCOc2ccccc2F)nc2ccccc21 | 5.01 µM [rising, single point]
32 | CCOc1ccccc1NC(=O)CSc1nnc(-c2ccccn2)n1Cc1ccco1 | 0.316 µM [falling, full curve, poor fit]
33 | C/C(=N\Nc1nc(C)cc(=O)[nH]1)C1CC1 | 0.0158 µM [falling, full curve, poor fit]
34 | COC(=O)c1c(C)nc2ccccc2c1-c1ccccc1 | 3.16 µM [falling, partial curve]
35 | Cc1ccc(C)c2[nH]c(=O)c(CN(CC3CCCO3)S(=O)(=O)c3ccc4c(c3)OCCO4)cc12 (configuration not stated) | 12.6 µM [falling, partial curve]
36 | Cc1ccc2c(c1)N(CC(=O)O)C(=O)CO2 | 0.0316 µM [rising, partial curve, poor fit]
37 | COc1ccc(-n2c(-c3cccc(OC)c3)nc(=S)c3c2CCCC3)cc1 | 12.6 µM [rising, partial curve]
38 | CN(/N=C/c1ccncc1)c1cnn(-c2ccc(F)c(Cl)c2)c(=O)c1Cl | 0.02 µM [falling, full curve, poor fit]
39 | Cc1ccc(NC(=O)/C=C/c2cccc(C(F)(F)F)c2)cc1 | 0.708 µM [falling, single point]
40 | CC1CCc2sc3nc(N4CCN(CCO)CC4)n4ncnc4c3c2C1 (configuration not stated) | 0.501 µM [falling, full curve]
41 | Cc1ccc(Cc2c(C)nc3nc(SCC(=O)NCCN4CCOCC4)nn3c2C)cc1 | 0.631 µM [falling, single point]
42 | Cc1ccc(S(=O)(=O)N(c2nc(N(C)C)nc(N(C)C)n2)n2cnnc2)cc1 | 35.5 µM [falling, single point]
43 | CN(C)CCCN(C(=O)c1sc2ccccc2c1Cl)c1nc2c(F)cccc2s1 | 15.8 µM [rising, partial curve]
44 | CCNC(=S)N/N=C/c1ccc(OCC(=O)Nc2ccc(C)cc2)cc1 | 25.1 µM [falling, single point]
45 | CCC(=O)N(Cc1cccs1)C1CCOC(C)(C)C1 (configuration not stated) | 1 µM [falling, full curve, poor fit]
46 | COc1ccc(C(=O)Nc2ccc(N3CCN(c4ccc(OC)cc4)CC3)c(C#N)c2)cc1 | 0.178 µM [falling, full curve, poor fit]

Row | SMILES | AC50
47 | CCOC(=O)C1=C(C)NC(=S)N(C(C)=O)C1c1ccccc1 (configuration not stated) | 0.398 µM [falling, partial curve]
48 | Cc1cc(-c2nnc(SCc3ccccn3)o2)no1 | 3.16 µM [falling, single point]
49 | O=C1CCCC2=C1C1(CCCCC1)N=C(Nc1nc3ccccc3o1)N2 | 0.126 µM [falling, full curve]
50 | CCOC(=O)c1oc2cccc(O)c2c1CN1CCOCC1 | 0.0251 µM [rising, full curve, poor fit]
51 | Cc1ccccc1C(=O)c1cccn1CC(=O)NCc1ccc2c(c1)OCO2 | 0.00316 µM [falling, full curve, poor fit]
52 | COc1ccc(Cc2nc(-c3ccc(Cl)cc3)no2)cc1 | 5.01 µM [rising, single point]
53 | c1ccc2c(c1)CCN2CCN1CCc2ccccc21 | 20 µM [falling, single point]
54 | CCOC(=O)CSc1nnc(CNc2cccc(Cl)c2)n1-c1ccccc1 | 0.891 µM [falling, full curve, poor fit]
55 | COc1ccccc1NC(=O)NCCCl | 0.0631 µM [falling, full curve]
56 | O=C(NCC(c1cccs1)N1CCOCC1)c1ccc([N+](=O)[O-])cc1 (configuration not stated) | 0.631 µM [rising, full curve, poor fit]
57 | O=C(Nc1nc2ccccc2n1Cc1ccccc1)c1ccc(COc2ccccc2[N+](=O)[O-])o1 | 3.98 µM [rising, single point]
58 | Cc1c(N)cccc1-c1nc2ccccc2[nH]1 | 0.631 µM [falling, single point]
59 | COCc1cc(C)nc(SCC(=O)Nc2ccc(C)c(C)c2)c1C#N | 15.8 µM [rising, single point]
60 | O=C1c2ccccc2C(=O)N1c1cccc(-c2nc3ccccc3o2)c1 | 0.158 µM [falling, single point]
61 | CCOC(=O)N1CCN(C(=O)c2ccc(N3CCCC3=O)cc2)CC1 | 0.0316 µM [rising, full curve, poor fit]
62 | COc1ccc2nc3sc(C(=O)N4CCN(c5ccc(F)cc5)CC4)cc3cc2c1 | 31.6 µM [rising, single point]
63 | CCCCCn1c(=O)c(Cc2ccccc2)c(O)c2ccccc21 | 31.6 µM [rising, single point]
64 | CC(C)Cn1c(C(C)C)nc([N+](=O)[O-])c1Sc1ccc(Cl)cn1 | 12.6 µM [falling, single point]
65 | CCOC(=O)N1CCC(NC(=O)CC(NS(=O)(=O)c2ccc(Cl)cc2)c2ccco2)CC1 (configuration not stated) | 20 µM [rising, single point]
66 | N#CC1=C(N)C(C#N)(C#N)C(c2ccncc2)C2CN(C(=O)OCc3ccccc3)CC=C12 (configuration not stated) | 35.5 µM [falling, single point]
67 | CCOC(=O)CSc1nc2c(sc(=S)n2Cc2ccco2)c(=O)n1-c1ccccc1 | 3.98 µM [rising, partial curve]
